# Results: the supplement of paper PMC12067093, “Discovery and optimisation of a covalent ligand for TRIM25 and its application to targeted protein ubiquitination” (Chemical Science, 2025)
# The chains behind the UniProt entries cited, without tags or fusion partners. Where a name states a change or a piece, a line headed by the entry shows the natural chain unless it says otherwise.
# UniProt P10599: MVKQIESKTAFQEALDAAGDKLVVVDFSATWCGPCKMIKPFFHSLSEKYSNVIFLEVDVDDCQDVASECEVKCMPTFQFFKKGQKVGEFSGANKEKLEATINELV
# UniProt Q05086: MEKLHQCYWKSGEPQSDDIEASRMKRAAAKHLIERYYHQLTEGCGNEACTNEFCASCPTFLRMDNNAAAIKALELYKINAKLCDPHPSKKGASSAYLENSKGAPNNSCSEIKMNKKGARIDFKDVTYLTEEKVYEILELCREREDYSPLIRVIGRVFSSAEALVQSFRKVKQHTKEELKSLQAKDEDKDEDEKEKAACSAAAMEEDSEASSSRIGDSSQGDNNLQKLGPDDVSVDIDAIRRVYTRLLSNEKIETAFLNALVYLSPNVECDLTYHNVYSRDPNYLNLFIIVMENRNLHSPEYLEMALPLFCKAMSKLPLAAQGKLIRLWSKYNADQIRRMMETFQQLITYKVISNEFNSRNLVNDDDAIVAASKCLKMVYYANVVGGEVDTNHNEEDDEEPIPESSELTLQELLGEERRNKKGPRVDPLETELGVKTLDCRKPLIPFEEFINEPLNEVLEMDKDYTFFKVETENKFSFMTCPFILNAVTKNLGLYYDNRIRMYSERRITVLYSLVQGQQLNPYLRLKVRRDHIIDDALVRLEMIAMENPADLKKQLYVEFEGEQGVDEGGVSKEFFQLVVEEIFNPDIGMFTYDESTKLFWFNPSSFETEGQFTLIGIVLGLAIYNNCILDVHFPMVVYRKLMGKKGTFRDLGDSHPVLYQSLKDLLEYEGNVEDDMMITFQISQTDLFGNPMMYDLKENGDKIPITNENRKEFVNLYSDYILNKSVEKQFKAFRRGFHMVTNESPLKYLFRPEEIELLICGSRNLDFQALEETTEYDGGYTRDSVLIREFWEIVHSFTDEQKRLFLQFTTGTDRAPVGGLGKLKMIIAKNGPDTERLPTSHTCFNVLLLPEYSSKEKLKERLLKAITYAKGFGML
# UniProt P26368, whole entry, looked up: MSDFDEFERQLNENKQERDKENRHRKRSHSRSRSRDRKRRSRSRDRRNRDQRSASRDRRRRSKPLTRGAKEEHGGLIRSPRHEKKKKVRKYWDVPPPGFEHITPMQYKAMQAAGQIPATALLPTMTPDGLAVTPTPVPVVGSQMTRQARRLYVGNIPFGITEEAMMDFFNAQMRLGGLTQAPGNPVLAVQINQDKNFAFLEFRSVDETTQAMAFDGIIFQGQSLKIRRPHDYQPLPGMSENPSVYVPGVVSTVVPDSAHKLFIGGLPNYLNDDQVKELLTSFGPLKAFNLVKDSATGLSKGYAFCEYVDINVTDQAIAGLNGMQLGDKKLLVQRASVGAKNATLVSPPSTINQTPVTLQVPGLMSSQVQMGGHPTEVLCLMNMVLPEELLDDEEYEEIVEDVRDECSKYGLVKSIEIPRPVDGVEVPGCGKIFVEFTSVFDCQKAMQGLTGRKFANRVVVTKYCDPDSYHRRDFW
# UniProt Q8IWV7: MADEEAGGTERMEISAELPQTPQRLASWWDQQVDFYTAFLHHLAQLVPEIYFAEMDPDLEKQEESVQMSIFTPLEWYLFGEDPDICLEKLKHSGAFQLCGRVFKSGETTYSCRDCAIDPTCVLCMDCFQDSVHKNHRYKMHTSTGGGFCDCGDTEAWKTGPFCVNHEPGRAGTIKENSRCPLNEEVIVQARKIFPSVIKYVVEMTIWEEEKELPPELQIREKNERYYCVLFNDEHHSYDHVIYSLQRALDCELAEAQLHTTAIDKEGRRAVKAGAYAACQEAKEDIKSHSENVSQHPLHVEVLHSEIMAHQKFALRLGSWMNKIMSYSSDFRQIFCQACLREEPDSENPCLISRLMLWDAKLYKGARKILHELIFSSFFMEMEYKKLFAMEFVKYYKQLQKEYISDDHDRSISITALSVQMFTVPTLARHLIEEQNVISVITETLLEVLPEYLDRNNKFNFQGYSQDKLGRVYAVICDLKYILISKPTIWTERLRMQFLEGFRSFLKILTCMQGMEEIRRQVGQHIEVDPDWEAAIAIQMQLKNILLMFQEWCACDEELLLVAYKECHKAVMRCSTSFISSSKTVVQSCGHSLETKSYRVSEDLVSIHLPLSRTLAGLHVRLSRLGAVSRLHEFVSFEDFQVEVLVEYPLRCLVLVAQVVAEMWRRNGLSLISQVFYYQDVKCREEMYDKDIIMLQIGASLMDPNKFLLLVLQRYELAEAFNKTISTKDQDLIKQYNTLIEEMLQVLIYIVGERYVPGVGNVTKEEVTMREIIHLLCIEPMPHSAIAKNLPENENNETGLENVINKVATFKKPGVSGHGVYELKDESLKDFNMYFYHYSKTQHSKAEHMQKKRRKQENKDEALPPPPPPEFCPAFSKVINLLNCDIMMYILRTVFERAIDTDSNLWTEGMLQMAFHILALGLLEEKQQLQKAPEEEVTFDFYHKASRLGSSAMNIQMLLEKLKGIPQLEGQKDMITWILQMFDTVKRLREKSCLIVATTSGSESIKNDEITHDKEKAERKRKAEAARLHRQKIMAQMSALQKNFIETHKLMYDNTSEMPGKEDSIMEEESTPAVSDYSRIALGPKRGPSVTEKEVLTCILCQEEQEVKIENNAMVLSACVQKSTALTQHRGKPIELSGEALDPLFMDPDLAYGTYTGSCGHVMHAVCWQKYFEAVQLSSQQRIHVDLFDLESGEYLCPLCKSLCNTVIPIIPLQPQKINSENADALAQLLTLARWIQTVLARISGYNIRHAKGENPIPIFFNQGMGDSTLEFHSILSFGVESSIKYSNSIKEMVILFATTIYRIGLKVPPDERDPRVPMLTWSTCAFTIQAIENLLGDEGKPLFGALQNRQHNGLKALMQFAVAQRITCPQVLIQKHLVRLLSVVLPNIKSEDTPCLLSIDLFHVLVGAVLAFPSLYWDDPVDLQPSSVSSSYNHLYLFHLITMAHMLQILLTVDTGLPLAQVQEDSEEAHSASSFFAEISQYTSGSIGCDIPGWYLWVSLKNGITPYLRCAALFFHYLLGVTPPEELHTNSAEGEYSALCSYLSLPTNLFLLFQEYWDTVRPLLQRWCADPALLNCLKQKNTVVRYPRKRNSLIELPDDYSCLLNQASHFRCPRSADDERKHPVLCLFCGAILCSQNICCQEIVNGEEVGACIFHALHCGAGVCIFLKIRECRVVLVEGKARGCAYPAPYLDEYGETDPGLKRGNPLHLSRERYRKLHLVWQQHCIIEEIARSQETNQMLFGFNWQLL
# UniProt P29597: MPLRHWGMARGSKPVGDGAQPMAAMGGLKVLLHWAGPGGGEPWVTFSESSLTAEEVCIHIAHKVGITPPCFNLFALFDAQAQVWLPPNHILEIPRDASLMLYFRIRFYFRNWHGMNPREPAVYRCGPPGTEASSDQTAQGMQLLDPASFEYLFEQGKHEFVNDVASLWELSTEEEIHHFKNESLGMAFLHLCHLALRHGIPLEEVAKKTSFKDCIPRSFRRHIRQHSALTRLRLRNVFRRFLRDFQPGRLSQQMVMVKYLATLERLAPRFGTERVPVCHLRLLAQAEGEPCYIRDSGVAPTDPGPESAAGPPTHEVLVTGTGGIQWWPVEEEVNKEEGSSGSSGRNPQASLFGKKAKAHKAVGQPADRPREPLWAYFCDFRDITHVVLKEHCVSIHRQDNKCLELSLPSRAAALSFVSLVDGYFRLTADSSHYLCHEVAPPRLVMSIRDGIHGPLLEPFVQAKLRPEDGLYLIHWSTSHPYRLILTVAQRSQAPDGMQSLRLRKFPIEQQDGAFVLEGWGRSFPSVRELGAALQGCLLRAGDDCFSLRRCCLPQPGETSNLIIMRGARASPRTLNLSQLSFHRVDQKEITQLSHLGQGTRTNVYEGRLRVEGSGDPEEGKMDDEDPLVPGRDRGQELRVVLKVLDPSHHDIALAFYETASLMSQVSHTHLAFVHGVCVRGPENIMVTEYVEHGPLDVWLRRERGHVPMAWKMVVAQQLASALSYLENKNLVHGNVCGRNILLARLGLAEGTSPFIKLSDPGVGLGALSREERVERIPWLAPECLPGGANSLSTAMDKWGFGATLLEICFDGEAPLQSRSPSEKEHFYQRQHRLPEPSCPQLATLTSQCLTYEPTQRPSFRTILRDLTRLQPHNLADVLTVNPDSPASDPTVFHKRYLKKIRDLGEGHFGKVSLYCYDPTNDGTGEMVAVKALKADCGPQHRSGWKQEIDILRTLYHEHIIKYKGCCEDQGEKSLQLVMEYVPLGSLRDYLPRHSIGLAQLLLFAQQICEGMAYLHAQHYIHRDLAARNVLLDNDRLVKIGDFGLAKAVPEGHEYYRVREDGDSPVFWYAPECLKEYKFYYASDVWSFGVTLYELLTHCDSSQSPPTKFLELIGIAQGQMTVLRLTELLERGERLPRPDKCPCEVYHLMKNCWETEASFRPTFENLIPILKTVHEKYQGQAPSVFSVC
# UniProt Q9UBT2: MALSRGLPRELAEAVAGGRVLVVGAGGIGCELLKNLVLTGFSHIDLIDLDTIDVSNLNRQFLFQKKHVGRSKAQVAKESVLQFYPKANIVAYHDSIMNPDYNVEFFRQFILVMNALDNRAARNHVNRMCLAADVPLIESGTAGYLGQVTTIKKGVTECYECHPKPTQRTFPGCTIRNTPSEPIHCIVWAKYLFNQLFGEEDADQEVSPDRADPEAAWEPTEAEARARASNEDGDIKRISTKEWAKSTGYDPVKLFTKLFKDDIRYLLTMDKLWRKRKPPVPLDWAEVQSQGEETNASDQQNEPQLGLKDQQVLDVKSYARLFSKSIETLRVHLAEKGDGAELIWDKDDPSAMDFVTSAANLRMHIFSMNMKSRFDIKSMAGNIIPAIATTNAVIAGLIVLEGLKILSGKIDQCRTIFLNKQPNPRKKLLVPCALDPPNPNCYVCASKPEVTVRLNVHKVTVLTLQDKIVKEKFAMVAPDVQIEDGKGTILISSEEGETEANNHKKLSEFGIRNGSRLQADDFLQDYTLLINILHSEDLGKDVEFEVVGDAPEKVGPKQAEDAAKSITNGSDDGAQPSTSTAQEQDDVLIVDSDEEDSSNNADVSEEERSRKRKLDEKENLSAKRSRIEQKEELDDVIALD
# UniProt Q9C0C9: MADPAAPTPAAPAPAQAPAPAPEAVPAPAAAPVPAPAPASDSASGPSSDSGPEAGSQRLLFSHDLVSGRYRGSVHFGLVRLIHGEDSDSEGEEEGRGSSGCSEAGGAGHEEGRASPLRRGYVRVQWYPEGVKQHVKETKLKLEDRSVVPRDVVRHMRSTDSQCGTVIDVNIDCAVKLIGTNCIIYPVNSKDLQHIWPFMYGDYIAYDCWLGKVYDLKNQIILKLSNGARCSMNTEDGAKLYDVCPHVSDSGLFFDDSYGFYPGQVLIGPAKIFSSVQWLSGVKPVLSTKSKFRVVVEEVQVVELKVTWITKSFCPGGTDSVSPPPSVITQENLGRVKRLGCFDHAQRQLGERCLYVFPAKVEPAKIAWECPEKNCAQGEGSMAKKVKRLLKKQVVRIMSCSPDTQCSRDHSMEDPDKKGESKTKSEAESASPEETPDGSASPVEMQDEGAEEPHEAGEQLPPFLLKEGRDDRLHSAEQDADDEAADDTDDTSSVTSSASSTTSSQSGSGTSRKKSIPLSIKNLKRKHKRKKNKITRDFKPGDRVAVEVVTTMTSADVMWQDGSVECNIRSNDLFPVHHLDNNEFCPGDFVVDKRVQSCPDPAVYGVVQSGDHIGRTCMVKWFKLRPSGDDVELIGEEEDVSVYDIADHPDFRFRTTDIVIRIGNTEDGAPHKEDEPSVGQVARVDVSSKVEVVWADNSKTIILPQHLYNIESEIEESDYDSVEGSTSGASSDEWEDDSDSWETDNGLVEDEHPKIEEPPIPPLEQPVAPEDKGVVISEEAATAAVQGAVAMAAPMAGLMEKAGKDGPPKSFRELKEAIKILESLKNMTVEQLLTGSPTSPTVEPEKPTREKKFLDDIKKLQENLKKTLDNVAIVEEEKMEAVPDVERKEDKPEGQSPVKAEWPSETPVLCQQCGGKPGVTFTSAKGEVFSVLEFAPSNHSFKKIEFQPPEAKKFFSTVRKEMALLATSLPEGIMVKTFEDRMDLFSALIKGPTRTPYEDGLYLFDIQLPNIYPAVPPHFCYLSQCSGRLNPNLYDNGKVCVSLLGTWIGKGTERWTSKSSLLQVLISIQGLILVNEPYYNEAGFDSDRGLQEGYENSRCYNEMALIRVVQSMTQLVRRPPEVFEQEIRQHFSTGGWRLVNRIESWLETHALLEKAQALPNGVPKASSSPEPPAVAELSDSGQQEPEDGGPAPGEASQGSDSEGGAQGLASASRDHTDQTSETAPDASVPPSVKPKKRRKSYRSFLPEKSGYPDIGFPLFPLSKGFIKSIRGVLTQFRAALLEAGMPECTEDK
# UniProt O14933: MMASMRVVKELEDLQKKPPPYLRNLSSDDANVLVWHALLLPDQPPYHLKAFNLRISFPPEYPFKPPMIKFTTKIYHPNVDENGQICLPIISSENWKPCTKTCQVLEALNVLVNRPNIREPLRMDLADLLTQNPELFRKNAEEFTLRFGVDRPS
# UniProt Q9BZL1: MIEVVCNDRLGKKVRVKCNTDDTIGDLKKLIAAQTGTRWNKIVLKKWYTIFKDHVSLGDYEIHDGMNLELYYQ
# Some of the results follow.
# Compound: CC1Cc2ccccc2N1C(=O)C1CCCN(C1)C(=O)CCl (mixture of isomers) [TRIM25 ligand 11 (diastereomer mixture)]
# Assay: probe-labelled cysteine peptide fold change vs DMSO (competition) (log2 fold change); higher = less target engagement (more negative = stronger competition)
# Conditions: THP-1, incubation time: 4 h
# 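Note: competitive chemoproteomic profiling in live THP-1 cells with an iodoacetamide desthiobiotin (IA-DTB) probe, comparing probe-labelled peptide intensities in compound-treated cells against DMSO-treated controls.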
Target,probe-labelled cysteine peptide fold change (10 µM),probe-labelled cysteine peptide fold change (50 µM)
TXN_P10599_32+35_LVVVDFSATWCGPCK (UniProt P10599),-0.484,
UBA6_A0AVT1_581_CLANLRPLLDSGTMGTK,-0.0328,-0.0957
UBR4_Q5T4S7_1900_RVAMCVLSSPHGR (UniProt Q5T4S7),-0.0522,0.0406
TXN_P10599_32_LVVVDFSATWCGPCK (UniProt P10599),-0.17,-0.358
UBR4_Q5T4S7_4890_QQGYSTVSHFNIVHYDCHLAAVR (UniProt Q5T4S7),-0.0243,0.16
TYMS_P04818_180_IIMCAWNPR (UniProt P04818),0.108,0.434
UBE3A_Q05086_83_LCDPHPSK (UniProt Q05086),0.0899,-0.0221
UBASH3B_Q8TF42_130+135_AHNIFPHITLCQFFMCEDSKVDALGEALQTTVSR (UniProt Q8TF42),-0.0969,-0.326
UBE2V1_Q13404_71_IECGPKYPEAPPFVR (UniProt Q13404),-0.243,0.115
UBE2M_P61081_95_CETMVYHPNIDLEGNVCLNILR (UniProt P61081),-0.092,-0.0144
U2AF2_P26368_464_YCDPDSYHRR (UniProt P26368),-0.205,-0.00812
TYW1B_Q6NUM6_581_ELVDLIPEYEIACEHEHSNCLLIAHR (UniProt Q6NUM6),0.268,0.256
UBR1_Q8IWV7_1577_WCADPALLNCLK (UniProt Q8IWV7),-0.00347,0.165
TYK2_P29597_936_ADCGPQHR (UniProt P29597),0.0163,-0.00962
UBA3_Q8TBC4_139_VPNCNVVPHFNK (UniProt Q8TBC4),0.0786,-0.0206
UBE2D3_P61077_111_VLLSICSLLCDPNPDDPLVPEIAR (UniProt P61077),0.482,
UBA6_A0AVT1_311_CLIVDFSNPEAPLEIHTAMLALDQFQEK,0.173,-0.0627
U2AF2_P26368_442_IFVEFTSVFDCQK (UniProt P26368),-0.109,0.0604
UBE2R2_Q712K3_93_MWHPNIYENGDVCISILHPPVDDPQSGELPSER (UniProt Q712K3),-0.0673,-0.15
TXNDC9_O14530_94_ESENVVCHFYR (UniProt O14530),-0.0365,-0.048
UBE3B_Q7Z3V4_311_DVCESLEGCHTLCLMGNLLHLGSLSPR (UniProt Q7Z3V4),0.00532,-0.304

Target,probe-labelled cysteine peptide fold change (10 µM),probe-labelled cysteine peptide fold change (50 µM)
UBASH3B_Q8TF42_70_SVQAACDWLFSHVGDPFLDDPLPR (UniProt Q8TF42),0.281,0.0133
UBR4_Q5T4S7_4430_VWCTTNEGEPMR (UniProt Q5T4S7),0.0122,-0.0424
UBR4_Q5T4S7_1033_TYINQLSMNSPEMSECDILHTLR (UniProt Q5T4S7),-0.0382,-0.152
UBE2E1_P51965_67_ELADITLDPPPNCSAGPK (UniProt P51965),-0.0755,0.0668
UBE4B_O95155_534_ECSLDSDYFK (UniProt O95155),0.0295,0.207
UBA1_P22314_179_VGEFCHNR (UniProt P22314),-0.000646,0.0721
UBR4_Q5T4S7_4146_QAACTIVEALATIPSR (UniProt Q5T4S7),0.0371,-0.0346
TXNL1_O43396_135_AGCECLNESDEHGFDNCLRK (UniProt O43396),-0.116,-0.268
UBE3A_Q05086_480_FSFMTCPFILNAVTK (UniProt Q05086),0.0709,-0.0129
UBE2E1_P51965_122+131_IYHCNINSQGVICLDILK (UniProt P51965),0.179,0.275
UBR4_Q5T4S7_3677_CSASVPANPGVCGNCGENVYQCHK (UniProt Q5T4S7),0.0361,0.111
UBA2_Q9UBT2_158+161_GVTECYECHPKPTQR (UniProt Q9UBT2),0.139,-0.0223
TXNDC5_Q8NBS9_381_IAEVDCTAER (UniProt Q8NBS9),0.0498,-0.082
UBA6_A0AVT1_156_YQCVVLTEMK,0.0118,0.0499
UBR2_Q8IWV8_1360_ILSDEDKPLFGPLPCR (UniProt Q8IWV8),-0.139,-0.289
UBE2O_Q9C0C9_163_STDSQCGTVIDVNIDCAVK (UniProt Q9C0C9),0.00125,0.126
UBR5_O95071_1291_QTVEHCQYRPPR (UniProt O95071),0.168,0.134
UBR1_Q8IWV7_1197_IHVDLFDLESGEYLCPLCK (UniProt Q8IWV7),0.0747,0.0549
UBR1_Q8IWV7_1726_LHLVWQQHCIIEEIAR (UniProt Q8IWV7),-0.0216,0.0386
U2SURP_O15042_65_ESLCDSPHQNLSR (UniProt O15042),0.0928,0.0959
UBA7_P41226_996_VLVLELSCEGDDEDTAFPPLHYEL (UniProt P41226),-0.0956,-0.106

# A portion of the results above:
Target,probe-labelled cysteine peptide fold change (10 µM),probe-labelled cysteine peptide fold change (50 µM)
UBA2_Q9UBT2_158+161_GVTECYECHPKPTQR (UniProt Q9UBT2),0.139,-0.0223
TXNDC5_Q8NBS9_381_IAEVDCTAER (UniProt Q8NBS9),0.0498,-0.082
UBA6_A0AVT1_156_YQCVVLTEMK,0.0118,0.0499
UBR2_Q8IWV8_1360_ILSDEDKPLFGPLPCR (UniProt Q8IWV8),-0.139,-0.289
UBE2O_Q9C0C9_163_STDSQCGTVIDVNIDCAVK (UniProt Q9C0C9),0.00125,0.126

# Following part:

Target,probe-labelled cysteine peptide fold change (10 µM),probe-labelled cysteine peptide fold change (50 µM)
UBE4B_O95155_113_SQSMDIDGVSCEK (UniProt O95155),-0.00543,-0.147
UBA6_A0AVT1_96_CQAWDLGTNFFLSEDDVVNK,-0.0178,-0.102
TXNIP_Q9H3M7_170_KVSCMFIPDGR (UniProt Q9H3M7),0.0891,0.294
TXNRD2_Q9NNW7_54_DYDLLVVGGGSGGLACAK (UniProt Q9NNW7),-0.0677,-0.106
UBE2L6_O14933_86+98_IYHPNVDENGQICLPIISSENWKPCTK (UniProt O14933),-0.249,-0.545
UBR4_Q5T4S7_2222_HTACNEQQR (UniProt Q5T4S7),0.141,0.0264
UBE2E1_P51965_122_IYHCNINSQGVICLDILK (UniProt P51965),0.0904,0.136
UBL4A_P11441_13_ECSLQVPEDELVSTLK (UniProt P11441),-0.132,0.132
TXNIP_Q9H3M7_170_VSCMFIPDGR (UniProt Q9H3M7),0.144,0.136
U2AF2_P26368_429_SIEIPRPVDGVEVPGCGK (UniProt P26368),0.0667,0.0728
UBAP2L_Q14157_68+75_NQDECVIALHDCNGDVNR (UniProt Q14157),-0.146,-0.229
UBE2E1_P51965_131_IYHCNINSQGVICLDILK (UniProt P51965),0.0832,0.188
UBR4_Q5T4S7_3872_CYGCASAVTEHCITLLR (UniProt Q5T4S7),0.308,-0.0564
UBA1_P22314_748_RCPHPLTFDVNNPLHLDYVMAAANLFAQTYGLTGSQDR (UniProt P22314),0.00165,-0.123
UBL5_Q9BZL1_18_CNTDDTIGDLKK (UniProt Q9BZL1),-0.0793,-0.00425
TXNDC5_Q8NBS9_353_FYAPWCGHCK (UniProt Q8NBS9),-0.105,-0.393
UBA1_P22314_711_SLVLQRPQTWADCVTWACHHWHTQYSNNIR (UniProt P22314),0.0038,0.142
TYK2_P29597_291_LLAQAEGEPCYIR (UniProt P29597),0.033,-0.0777
UACA_Q9BZF9_481_ALALECER (UniProt Q9BZF9),-0.0367,0.0956
UBE2O_Q9C0C9_353_CLYVFPAK (UniProt Q9C0C9),-0.218,-0.188
UBR4_Q5T4S7_2619_QLEGDCCSFITQLVNHFWK (UniProt Q5T4S7),-0.0252,0.0219

Target,probe-labelled cysteine peptide fold change (10 µM),probe-labelled cysteine peptide fold change (50 µM)
UBN2_Q6ZU65_515_SGVYSHLEAFVPCNK (UniProt Q6ZU65),0.00214,-0.0846
UBE2L6_O14933_98_IYHPNVDENGQICLPIISSENWKPCTK (UniProt O14933),-0.209,-0.0943
UBA2_Q9UBT2_185_NTPSEPIHCIVWAK (UniProt Q9UBT2),-0.203,-0.0808
TXN_P10599_73_CMPTFQFFK (UniProt P10599),-0.14,-0.279
TXNL1_O43396_64_YPQAVFLEVDVHQCQGTAATNNISATPTFLFFR (UniProt O43396),0.218,-0.00695
UBA1_P22314_1040_ALVLELCCNDESGEDVEVPYVR (UniProt P22314),0.14,0.0716
U2SURP_O15042_918_EKDECTPTRK (UniProt O15042),-0.147,-0.0524
UBR1_Q8IWV7_1200_IHVDLFDLESGEYLCPLCK (UniProt Q8IWV7),0.101,0.0329
UBA6_A0AVT1_449_ACIGDTLCQK,-0.00098,0.131
UBR2_Q8IWV8_336_ILCQVGLQEGPDGENSSLVDR (UniProt Q8IWV8),-0.00789,-0.00301
UBE2T_Q9NPD8_86_ICLDVLK (UniProt Q9NPD8),-0.00663,0.103
UBA6_A0AVT1_625_GHTEVIVPHLTESYNSHRDPPEEEIPFCTLK,0.249,0.0194
UBL7_Q96S82_66_LQESVPDPELIDLIYCGR (UniProt Q96S82),-0.0978,-0.264
UBASH3B_Q8TF42_135_AHNIFPHITLCQFFMCEDSK (UniProt Q8TF42),0.0108,0.18
UBR5_O95071_1382+1386_LDCFTHCLIVK (UniProt O95071),0.374,0.564
UBN1_Q9NPG3_711_VGGVLCTEEK (UniProt Q9NPG3),0.0405,-0.103
UBE3A_Q05086_108_GAPNNSCSEIK (UniProt Q05086),-0.00611,-0.169
UBASH3B_Q8TF42_135_AHNIFPHITLCQFFMCEDSKVDALGEALQTTVSR (UniProt Q8TF42),0.145,0.126
UBE2F_Q969M7_64_LHCFQLTVTPDEGYYQGGK (UniProt Q969M7),0.0805,0.0875
TXNRD2_Q9NNW7_446_DASQCYVK (UniProt Q9NNW7),0.00148,0.225
UBR4_Q5T4S7_122_LENPDEACAVSQK (UniProt Q5T4S7),0.0581,0.444
